Values of other authors in patent US20140323593A1, “METHODS AND APPARATUS FOR THE CONTROL OF ADENOSINE TRIPHOSPHATE SYNTHASE ACTIVITY WITHIN LIVING ORGANISMS, AND CONDITIONING OF WATER-BASED FLUIDS AND SUBSTANCES USING MAGNETIC FIELD EXPOSURES OR THEIR WITHDRAWAL” (priority 2013, published 2014).
The name of at least one read-out is uncertain.

Tested on: 60 cancer cell lines maintained by the US National Cancer Institute (NCI-60)
Conditions: between NCI-60 cell lines; cited from earlier work

Structure (SMILES): CC[C@H]1/C=C/C=C/C[C@@H](C)[C@H](O)[C@@](C)(O)C(=O)[C@@H](C)[C@H](O)[C@@H](C)C(=O)[C@@H](C)[C@H](O)[C@@H](C)/C=C/C(=O)O[C@@H]2[C@H](C)[C@H](CC1)O[C@]1(CC[C@H](C)[C@H](C[C@@H](C)O)O1)[C@H]2C [oligomycin]
- variations in the IC50 between cell lines: more than 3 orders of magnitude
